Experimental data as given in article PMC11157767 (Molecular Cancer, 2024).
This continues a long series; more values of the same kind are listed elsewhere.

Tested on: TFG-MET allograft tumors
Experiment: RNA-sequencing, differential expression and GSEA of TFG-MET allograft tumors
Type: in vivo, mouse
Conditions: CAP.v.Veh
Description: Error bars display standard error of mean, statistical significance was determined using t-test analysis. (****;p<0.0001, ***;p<0.001, **;p<0.01, *;p<0.05). […] Each dot represents an individual replicate. Error bars display standard error of the mean.
Each dot represents one gene.

[1] = GOCC_CLATHRIN_COATED_VESICLE_MEMBRANE
[2] = GOCC_CLATHRIN_COAT_OF_COATED_PIT
[3] = GOCC_CLUSTER_OF_ACTIN_BASED_CELL_PROJECTIONS
[4] = GOCC_COLLAGEN_CONTAINING_EXTRACELLULAR_MATRIX
[5] = GOCC_COMPLEX_OF_COLLAGEN_TRIMERS
[6] = GOCC_CONDENSED_NUCLEAR_CHROMOSOME_KINETOCHORE
[7] = GOCC_COPII_COATED_ER_TO_GOLGI_TRANSPORT_VESICLE
[8] = GOCC_COPI_COATED_VESICLE_MEMBRANE
[9] = GOCC_CORTICAL_ACTIN_CYTOSKELETON
[10] = GOCC_CUL3_RING_UBIQUITIN_LIGASE_COMPLEX
[11] = GOCC_CUL4_RING_E3_UBIQUITIN_LIGASE_COMPLEX
[12] = GOCC_CULLIN_RING_UBIQUITIN_LIGASE_COMPLEX
[13] = GOCC_CYTOPLASMIC_DYNEIN_COMPLEX
[14] = GOCC_CYTOSOLIC_SMALL_RIBOSOMAL_SUBUNIT
[15] = GOCC_ENDOPLASMIC_RETICULUM_LUMEN
[16] = GOCC_ENDOPLASMIC_RETICULUM_PROTEIN_CONTAINING_COMPLEX

Question: How did the NES (GOCC_CENTRIOLE) turn out when `CNC(=O)c1ccc(-c2cnc3ncc(Cc4ccc5ncccc5c4)n3n2)cc1F` [Capmatinib] was run?
Answer: -1.216

Question: What about the ES (GOCC_CHLORIDE_CHANNEL_COMPLEX) of the same compound?
Answer: -0.2836

Question: What about the NES (GOCC_CHLORIDE_CHANNEL_COMPLEX) of the same compound?
Answer: -0.9663

Question: What about the ES (GOCC_CILIARY_BASE) of the same compound?
Answer: 0.2528

Question: What about the NES (GOCC_CILIARY_BASE) of the same compound?
Answer: 0.961

Question: And the ES (GOCC_CLATHRIN_COATED_PIT)?
Answer: -0.2024

Question: What about the NES (GOCC_CLATHRIN_COATED_PIT) of the same compound?
Answer: -0.7808

Question: And the ES [1]?
Answer: 0.2155

Question: What about the NES [1] of the same compound?
Answer: 1.069

Question: What about the ES [2] of the same compound?
Answer: 0.4212

Question: What about the NES [2] of the same compound?
Answer: 1.37

Question: What about the ES (GOCC_CLATHRIN_VESICLE_COAT) of the same compound?
Answer: 0.3364

Question: What about the NES (GOCC_CLATHRIN_VESICLE_COAT) of the same compound?
Answer: 1.242

Question: What about the ES (GOCC_CLEAVAGE_FURROW) of the same compound?
Answer: -0.3471

Question: And the NES (GOCC_CLEAVAGE_FURROW)?
Answer: -1.262

Question: What about the ES [3] of the same compound?
Answer: -0.237

Question: And the NES [3]?
Answer: -1.007

Question: And the ES [4]?
Answer: 0.1866

Question: And the NES [4]?
Answer: 1.106

Question: And the ES [5]?
Answer: -0.2589

Question: And the NES [5]?
Answer: -0.7763

Question: And the ES [6]?
Answer: -0.3515

Question: What about the NES [6] of the same compound?
Answer: -0.9802

Question: And the ES (GOCC_CONTRACTILE_FIBER)?
Answer: -0.2072

Question: What about the NES (GOCC_CONTRACTILE_FIBER) of the same compound?
Answer: -0.9191

Question: And the ES (GOCC_COP9_SIGNALOSOME)?
Answer: -0.3469

Question: What about the NES (GOCC_COP9_SIGNALOSOME) of the same compound?
Answer: -1.155

Question: What about the ES [7] of the same compound?
Answer: -0.2118

Question: What about the NES [7] of the same compound?
Answer: -0.8428

Question: And the ES (GOCC_COPII_VESICLE_COAT)?
Answer: -0.4515

Question: What about the NES (GOCC_COPII_VESICLE_COAT) of the same compound?
Answer: -1.232

Question: And the ES (GOCC_COPI_COATED_VESICLE)?
Answer: -0.2642

Question: What about the NES (GOCC_COPI_COATED_VESICLE) of the same compound?
Answer: -0.8488

Question: What about the ES [8] of the same compound?
Answer: -0.3401

Question: What about the NES [8] of the same compound?
Answer: -0.9657

Question: And the ES (GOCC_CORNIFIED_ENVELOPE)?
Answer: 0.3443

Question: And the NES (GOCC_CORNIFIED_ENVELOPE)?
Answer: 1.199

Question: And the ES [9]?
Answer: 0.2476

Question: And the NES [9]?
Answer: 1.1733

Question: What about the ES (GOCC_CORTICAL_CYTOSKELETON) of the same compound?
Answer: 0.2021

Question: What about the NES (GOCC_CORTICAL_CYTOSKELETON) of the same compound?
Answer: 0.9922

Question: And the ES (GOCC_COSTAMERE)?
Answer: -0.2887

Question: And the NES (GOCC_COSTAMERE)?
Answer: -0.8049

Question: What about the ES [10] of the same compound?
Answer: -0.2931

Question: And the NES [10]?
Answer: -0.9884

Question: What about the ES [11] of the same compound?
Answer: -0.3293

Question: What about the NES [11] of the same compound?
Answer: -1.072

Question: And the ES [12]?
Answer: -0.24

Question: What about the NES [12] of the same compound?
Answer: -1.027

Question: And the ES [13]?
Answer: -0.2661

Question: What about the NES [13] of the same compound?
Answer: -0.767

Question: And the ES (GOCC_CYTOSOLIC_RIBOSOME)?
Answer: -0.2925

Question: And the NES (GOCC_CYTOSOLIC_RIBOSOME)?
Answer: -1.197

Question: What about the ES [14] of the same compound?
Answer: -0.3292

Question: What about the NES [14] of the same compound?
Answer: -1.158

Question: And the ES (GOCC_DENDRITE_CYTOPLASM)?
Answer: 0.2477

Question: And the NES (GOCC_DENDRITE_CYTOPLASM)?
Answer: 0.9538

Question: And the ES (GOCC_DENDRITE_MEMBRANE)?
Answer: 0.196

Question: What about the NES (GOCC_DENDRITE_MEMBRANE) of the same compound?
Answer: 0.8217

Question: And the ES (GOCC_DENDRITIC_SPINE_MEMBRANE)?
Answer: 0.3045

Question: What about the NES (GOCC_DENDRITIC_SPINE_MEMBRANE) of the same compound?
Answer: 0.9565

Question: And the ES (GOCC_DENSE_CORE_GRANULE)?
Answer: 0.3269

Question: What about the NES (GOCC_DENSE_CORE_GRANULE) of the same compound?
Answer: 1.223

Question: And the ES (GOCC_DNA_PACKAGING_COMPLEX)?
Answer: -0.4035

Question: And the NES (GOCC_DNA_PACKAGING_COMPLEX)?
Answer: -1.255

Question: What about the ES (GOCC_DYNEIN_COMPLEX) of the same compound?
Answer: 0.2821

Question: What about the NES (GOCC_DYNEIN_COMPLEX) of the same compound?
Answer: 1.209

Question: What about the ES (GOCC_EARLY_ENDOSOME) of the same compound?
Answer: 0.158

Question: What about the NES (GOCC_EARLY_ENDOSOME) of the same compound?
Answer: 0.9512

Question: And the ES (GOCC_EARLY_ENDOSOME_MEMBRANE)?
Answer: -0.2466

Question: And the NES (GOCC_EARLY_ENDOSOME_MEMBRANE)?
Answer: -1.063

Question: What about the ES (GOCC_ENDOCYTIC_VESICLE_LUMEN) of the same compound?
Answer: -0.3339

Question: What about the NES (GOCC_ENDOCYTIC_VESICLE_LUMEN) of the same compound?
Answer: -0.9112

Question: And the ES (GOCC_ENDOPEPTIDASE_COMPLEX)?
Answer: -0.1955

Question: What about the NES (GOCC_ENDOPEPTIDASE_COMPLEX) of the same compound?
Answer: -0.748

Question: What about the ES [15] of the same compound?
Answer: -0.1806

Question: And the NES [15]?
Answer: -0.8249

Question: And the ES [16]?
Answer: -0.1866

Question: What about the NES [16] of the same compound?
Answer: -0.7871

Question: What about the ES (GOCC_ENDOPLASMIC_RETICULUM_QUALITY_CONTROL_COMPARTMENT) of the same compound?
Answer: 0.2788
